Data reported in the supplement of paper PMC12889115.
The other results are listed elsewhere or left out. These are raw signals, not scaled to a control.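 First-pass screen: polymyxin B was added at a level that permeabilizes the Salmonella outer membrane while sparing the inner membrane. DMSO wells, with and without polymyxin B, defined maximum growth. Because plates differed from one another, each plate's data were ranked separately and the compounds with the lowest OD600 were carried forward as hits.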

Tested on: Salmonella enterica serovar Typhimurium SL1344
Test: bacterial growth OD600 after 18 h with compound and polymyxin B; higher = more bacterial growth (less inhibition)
Conditions: 50 µM, Mueller-Hinton broth

Structure (SMILES): CN(CC(=O)NC1CCCN(c2ccc(C(F)(F)F)cn2)C1)Cc1cccnc1 (stereo unspecified)
- bacterial growth OD600 (polymyxin B 1 µg/mL): 1.03

Structure (SMILES): COc1cccc(CC2(CO)CCCN(Cc3ccc(OC)c(C)c3OC)C2)c1 (stereo unspecified)
- bacterial growth OD600 (polymyxin B 1 µg/mL): 1.19

Structure (SMILES): CCC1CN(Cc2ccccc2O)Cc2cc(OC)ccc2O1 (stereo unspecified)
- bacterial growth OD600 (polymyxin B 0.75 µg/mL): 0.737

Structure (SMILES): CN(Cc1ccccc1Cl)C(=O)c1cn(CCC2CCCCC2)nn1
- bacterial growth OD600 (polymyxin B 1 µg/mL): 0.824

Structure (SMILES): COC(=O)C1CCN(c2nc(CN3CCCC3c3nccs3)nc3cc(OC)c(OC)cc23)CC1 (stereo unspecified)
- bacterial growth OD600 (polymyxin B 0.75 µg/mL): 0.844

Structure (SMILES): O=C(c1cc(Cn2ccc3ccccc32)[nH]n1)N1CCCCCC1
- bacterial growth OD600 (polymyxin B 1 µg/mL): 0.813

Structure (SMILES): O=S(=O)(Nc1cccc(N2CCC(NCC3OCCc4ccccc43)CC2)c1)c1ccc(F)cc1 (stereo unspecified)
- bacterial growth OD600 (polymyxin B 0.75 µg/mL): 0.977

Structure (SMILES): CC#CCN1C(=O)NC(CCc2ccccc2)(C2CCN(Cc3cnn(-c4ccccc4)c3)CC2)C1=O (stereo unspecified)
- bacterial growth OD600 (polymyxin B 0.75 µg/mL): 0.803

Structure (SMILES): CC1(C)Cc2nc(N3CCOCC3)ncc2C(NC2CCCCC2)C1 (stereo unspecified)
- bacterial growth OD600 (polymyxin B 0.75 µg/mL): 0.836

Structure (SMILES): Cc1cccc(CN2CCC3(CCCN(Cc4ccccc4F)C3=O)C2)n1 (stereo unspecified)
- bacterial growth OD600 (polymyxin B 1 µg/mL): 0.908

Structure (SMILES): COc1cccc(C(=O)NC2CCCN(CCc3ccccc3)C2)c1OC (stereo unspecified)
- bacterial growth OD600 (polymyxin B 0.75 µg/mL): 0.962

Structure (SMILES): COc1cccc(-c2cnc(-c3ccncc3)nc2C2CCN(Cc3cccc(F)c3F)CC2)c1
- bacterial growth OD600 (polymyxin B 0.75 µg/mL): 0.948

Structure (SMILES): Cc1ccc(CN(C)C(=O)c2cc(Cn3ccnc3C(C)C)[nH]n2)o1
- bacterial growth OD600 (polymyxin B 1 µg/mL): 1.12

Structure (SMILES): COc1ccc(OC2CCN(C3CCCC3)CC2)c(C(=O)NCCCSC)c1
- bacterial growth OD600 (polymyxin B 1 µg/mL): 0.994

Structure (SMILES): CCOC(=O)C1CCN(Cc2nc(Cc3ccccc3F)no2)CC1
- bacterial growth OD600 (polymyxin B 1 µg/mL): 0.842

Structure (SMILES): O=S(=O)(NCc1cccnc1Oc1ccccc1)c1cccnc1
- bacterial growth OD600 (polymyxin B 1 µg/mL): 1.15

Structure (SMILES): CN(C(=O)c1ccco1)C(Cc1ccccc1Cl)C1CCN(Cc2cccc3ncccc23)CC1 (stereo unspecified)
- bacterial growth OD600 (polymyxin B 0.75 µg/mL): 0.801

Structure (SMILES): COc1ccc(CC(=O)N(C)CC2CCCN(CCc3ccccc3F)C2)cc1OC (stereo unspecified)
- bacterial growth OD600 (polymyxin B 1 µg/mL): 0.931

Structure (SMILES): Cc1ocnc1C(=O)NC1CC(=O)N(Cc2ccccc2Cl)C1 (stereo unspecified)
- bacterial growth OD600 (polymyxin B 1 µg/mL): 0.88

Structure (SMILES): CCC1CN(Cc2ccc(OC)c(OC)c2OC)Cc2ccc(Cl)cc2O1 (stereo unspecified)
- bacterial growth OD600 (polymyxin B 0.75 µg/mL): 0.573

Structure (SMILES): O=C(NCC1(N2CCOCC2)CCCC1)c1cc(COc2cccc(F)c2)[nH]n1
- bacterial growth OD600 (polymyxin B 1 µg/mL): 0.91

Structure (SMILES): CCC(=O)C1CCCN(C(=O)CC2(c3ccc(OC)cc3)CC(=O)N(C3CC3)C2=O)C1 (stereo unspecified)
- bacterial growth OD600 (polymyxin B 0.75 µg/mL): 0.913

Structure (SMILES): Cc1nc2ccccc2n1Cc1cc(C(=O)NCCOc2cccnc2)n[nH]1
- bacterial growth OD600 (polymyxin B 1 µg/mL): 1.09

Structure (SMILES): CCOC(=O)CNC(=O)N1CCc2onc(-c3cccc(F)c3)c2C1
- bacterial growth OD600 (polymyxin B 0.75 µg/mL): 0.862

Structure (SMILES): Cc1nc(N2CCCCCCC2)ncc1C(C)NCc1ccccc1 (stereo unspecified)
- bacterial growth OD600 (polymyxin B 0.75 µg/mL): 0.001

Structure (SMILES): Cc1cc2nc(N3CCC(C(=O)NCC4COCCO4)CC3)nc(C)c2cc1C (stereo unspecified)
- bacterial growth OD600 (polymyxin B 0.75 µg/mL): 0.836

Structure (SMILES): COc1cccc(CN2CCCC(O)(CN3CCC(C)CC3)C2=O)c1 (stereo unspecified)
- bacterial growth OD600 (polymyxin B 1 µg/mL): 0.791

Structure (SMILES): C[C@@H]1CN(C2(C(=O)N3CCSCC3)Cc3ccccc3C2)C[C@H](C)O1
- bacterial growth OD600 (polymyxin B 0.75 µg/mL): 0.846

Structure (SMILES): CCc1nc2cc(NC(C)=O)cc(C(=O)N3CCCC(COC)C3)c2n1Cc1cccnc1 (stereo unspecified)
- bacterial growth OD600 (polymyxin B 0.75 µg/mL): 0.908

Structure (SMILES): COC(=O)[C@@H]1CCCN1C(=O)Cc1ccc(N2CCC(NCc3ccc(Cl)s3)CC2)cc1
- bacterial growth OD600 (polymyxin B 0.75 µg/mL): 0.791

Structure (SMILES): Cc1ccc(CN(C)C(=O)C2CCCN(C3CCN(C(=O)C4CC4)CC3)C2)cc1 (stereo unspecified)
- bacterial growth OD600 (polymyxin B 0.75 µg/mL): 0.775
